Measurements published in publication PMC6393364.
Results are given in words; binding and its absence hold for the method and conditions named. In cells and extracts the contact can be indirect. Some binding calls cover weakened binding; strength is not graded here.

Protein sequences, listed by entry. Tags and fused reporters are not part of them.
UniProt Q61290: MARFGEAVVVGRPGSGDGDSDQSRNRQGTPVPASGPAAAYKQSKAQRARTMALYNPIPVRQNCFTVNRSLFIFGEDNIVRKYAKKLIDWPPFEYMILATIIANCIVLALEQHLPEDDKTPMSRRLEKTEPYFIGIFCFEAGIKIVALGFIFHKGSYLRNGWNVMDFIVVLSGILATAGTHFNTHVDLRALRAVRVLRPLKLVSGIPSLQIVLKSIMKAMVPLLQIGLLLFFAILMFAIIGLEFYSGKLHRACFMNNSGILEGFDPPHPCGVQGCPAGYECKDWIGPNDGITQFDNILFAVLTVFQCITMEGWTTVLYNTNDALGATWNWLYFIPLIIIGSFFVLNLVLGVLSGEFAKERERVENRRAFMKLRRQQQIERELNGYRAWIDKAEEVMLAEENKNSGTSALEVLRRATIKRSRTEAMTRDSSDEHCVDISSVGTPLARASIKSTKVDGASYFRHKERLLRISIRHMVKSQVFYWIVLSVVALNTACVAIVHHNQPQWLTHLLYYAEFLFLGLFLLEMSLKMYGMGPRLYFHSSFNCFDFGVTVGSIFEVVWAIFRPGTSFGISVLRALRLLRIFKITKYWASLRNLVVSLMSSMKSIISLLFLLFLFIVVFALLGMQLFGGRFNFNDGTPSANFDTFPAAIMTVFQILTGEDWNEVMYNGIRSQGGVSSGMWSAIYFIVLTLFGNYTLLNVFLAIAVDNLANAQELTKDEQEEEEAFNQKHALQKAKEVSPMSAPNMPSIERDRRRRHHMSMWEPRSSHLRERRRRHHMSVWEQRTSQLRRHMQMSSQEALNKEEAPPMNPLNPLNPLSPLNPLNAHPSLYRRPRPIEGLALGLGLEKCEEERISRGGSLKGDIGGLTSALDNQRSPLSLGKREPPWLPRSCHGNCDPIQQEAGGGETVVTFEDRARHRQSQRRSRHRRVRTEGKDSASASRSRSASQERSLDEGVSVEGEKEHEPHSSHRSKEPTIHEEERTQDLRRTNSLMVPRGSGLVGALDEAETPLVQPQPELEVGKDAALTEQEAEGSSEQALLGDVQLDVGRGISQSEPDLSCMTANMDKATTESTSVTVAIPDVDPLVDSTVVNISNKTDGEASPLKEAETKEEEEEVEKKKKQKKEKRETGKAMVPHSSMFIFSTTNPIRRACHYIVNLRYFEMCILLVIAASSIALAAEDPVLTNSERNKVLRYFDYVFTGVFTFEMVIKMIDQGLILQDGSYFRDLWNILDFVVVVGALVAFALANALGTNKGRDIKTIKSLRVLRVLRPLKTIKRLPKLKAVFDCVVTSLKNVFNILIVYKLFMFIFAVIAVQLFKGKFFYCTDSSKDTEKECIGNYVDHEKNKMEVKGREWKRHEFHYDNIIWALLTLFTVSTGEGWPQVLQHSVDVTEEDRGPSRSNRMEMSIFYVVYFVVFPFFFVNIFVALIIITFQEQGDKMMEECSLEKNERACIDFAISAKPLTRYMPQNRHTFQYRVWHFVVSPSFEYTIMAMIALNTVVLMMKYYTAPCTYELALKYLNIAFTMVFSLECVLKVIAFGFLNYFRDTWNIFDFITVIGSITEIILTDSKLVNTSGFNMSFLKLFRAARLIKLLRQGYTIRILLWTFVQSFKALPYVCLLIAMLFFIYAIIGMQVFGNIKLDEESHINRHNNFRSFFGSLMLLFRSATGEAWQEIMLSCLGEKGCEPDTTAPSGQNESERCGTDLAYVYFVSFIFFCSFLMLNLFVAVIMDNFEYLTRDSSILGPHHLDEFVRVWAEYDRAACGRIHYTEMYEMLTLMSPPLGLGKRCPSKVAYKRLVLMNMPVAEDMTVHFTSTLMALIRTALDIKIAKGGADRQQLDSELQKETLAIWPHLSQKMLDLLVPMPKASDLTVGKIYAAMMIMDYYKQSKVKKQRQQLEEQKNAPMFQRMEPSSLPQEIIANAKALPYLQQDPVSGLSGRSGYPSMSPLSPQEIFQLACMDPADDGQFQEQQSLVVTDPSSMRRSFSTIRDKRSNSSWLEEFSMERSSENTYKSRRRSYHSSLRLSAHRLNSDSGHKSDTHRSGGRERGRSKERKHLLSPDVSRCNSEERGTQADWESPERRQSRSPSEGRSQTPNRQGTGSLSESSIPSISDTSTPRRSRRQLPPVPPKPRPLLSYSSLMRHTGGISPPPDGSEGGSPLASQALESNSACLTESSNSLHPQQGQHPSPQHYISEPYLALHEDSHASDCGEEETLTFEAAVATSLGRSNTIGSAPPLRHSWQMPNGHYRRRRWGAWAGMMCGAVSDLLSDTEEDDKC
UniProt Q08460: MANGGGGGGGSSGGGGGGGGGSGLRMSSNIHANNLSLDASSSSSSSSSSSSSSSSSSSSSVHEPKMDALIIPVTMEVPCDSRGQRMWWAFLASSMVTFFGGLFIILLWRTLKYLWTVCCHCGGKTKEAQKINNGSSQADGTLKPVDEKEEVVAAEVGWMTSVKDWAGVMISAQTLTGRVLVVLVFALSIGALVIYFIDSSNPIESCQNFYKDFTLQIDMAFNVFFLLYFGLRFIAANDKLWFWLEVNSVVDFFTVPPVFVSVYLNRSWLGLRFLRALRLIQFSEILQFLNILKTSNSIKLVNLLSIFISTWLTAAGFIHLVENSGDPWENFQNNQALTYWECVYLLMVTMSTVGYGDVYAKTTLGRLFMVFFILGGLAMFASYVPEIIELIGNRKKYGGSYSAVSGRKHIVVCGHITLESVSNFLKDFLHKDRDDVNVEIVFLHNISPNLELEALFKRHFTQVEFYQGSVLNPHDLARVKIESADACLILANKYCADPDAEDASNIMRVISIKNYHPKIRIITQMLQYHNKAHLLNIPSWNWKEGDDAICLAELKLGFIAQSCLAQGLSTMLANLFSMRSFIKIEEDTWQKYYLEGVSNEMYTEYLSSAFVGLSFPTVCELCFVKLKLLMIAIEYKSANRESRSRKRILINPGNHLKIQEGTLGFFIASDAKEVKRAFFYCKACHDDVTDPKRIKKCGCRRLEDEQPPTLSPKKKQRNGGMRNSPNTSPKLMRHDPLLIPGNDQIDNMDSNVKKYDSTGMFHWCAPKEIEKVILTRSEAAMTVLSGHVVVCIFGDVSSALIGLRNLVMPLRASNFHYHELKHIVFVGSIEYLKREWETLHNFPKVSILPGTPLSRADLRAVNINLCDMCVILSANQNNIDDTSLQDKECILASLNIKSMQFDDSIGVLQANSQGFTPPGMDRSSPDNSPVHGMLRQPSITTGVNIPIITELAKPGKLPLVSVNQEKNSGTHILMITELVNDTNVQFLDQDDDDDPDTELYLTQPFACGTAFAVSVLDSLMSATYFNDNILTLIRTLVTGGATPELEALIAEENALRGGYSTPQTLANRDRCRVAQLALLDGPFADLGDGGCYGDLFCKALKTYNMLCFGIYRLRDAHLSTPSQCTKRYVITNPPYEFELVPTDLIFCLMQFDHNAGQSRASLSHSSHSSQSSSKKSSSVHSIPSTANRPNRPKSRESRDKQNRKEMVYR

Molecular target: high-voltage activated calcium channel Cav2.3 (mouse (endogenous in hippocampus)) (UniProt Q61290)
Assay: co-IP; native co-IP from 12-week-old WT C57BL/6 mouse hippocampus lysate (150 mM NaCl, 20 mM Tris-HCl, 1% CHAPS); anti-Cav2.3 on protein A beads, 4°C overnight, IgG as nonspecific control; blot for BK

“big-conductance calcium-activated potassium channel (BK) alpha subunit (from UniProt Q08460 1-1209)” was tested, and the binding was “binds”.
